Data as given in US20160084855A1, “Compositions and Methods for Modulation and Detection of Immune and Inflammatory Responses” (UNIVERSITY OF CONNECTICUT, priority 2013, published 2016).

Test: Serum Lipid 654 by MRM-mass spectrometry in patients and controls
Parameters: species or system human
[1] = MS patients N=17, adjusted by 13C internal standard, FIG. 25
[2] = banked serum, Alzheimer's patients N=15, FIG. 26
[3] = banked serum, MS patients N=13, FIG. 26
[4] = control patients (healthy) N=12, adjusted by 13C internal standard, FIG. 25

CC(C)CCCCCCCCCCCC(=O)OC(CCCCCCCCCCCC(C)C)CC(=O)NCC(=O)N[C@@H](CO)C(=O)O (stereo partly drawn) [Lipid 654]
Mean serum ion abundance, Transition 1 [1]: 414,891
Mean serum ion abundance, Transition 2 [1]: 66,482
Mean serum ion abundance, Transition 3 [1]: 2,762
Mean serum ion abundance, Transition 1 [2]: 1,297,909
Mean serum ion abundance, Transition 2 [2]: 295,680
Mean serum ion abundance, Transition 3 [2]: 142,076
Mean serum ion abundance, Transition 1 [3]: 112,139
Mean serum ion abundance, Transition 2 [3]: 26,333
Mean serum ion abundance, Transition 3 [3]: 13,786
Mean serum ion abundance, Transition 1 [4]: 3,003,525
Mean serum ion abundance, Transition 2 [4]: 497,055
Mean serum ion abundance, Transition 3 [4]: 211,245
